Results published in publication PMC5496941.

Experiments:
[1] = target: GST-ElrA_(27–723), the full-length protein without its signal-peptide (Enterococcus faecalis (strain V583)); assay: pull-down; GST-ElrA proteins bound to the beads, incubated overnight at 4 °C with HEK293T cell extracts (200–400 μg of proteins) with 3Flag-FHL2 in PBS-1% Triton X100; six washes in lysis buffer with 0.5 M NaCl; Western blot with anti-FLAG M2; only the target purified
[2] = target: GST-ElrA_(474–606), the FID (Enterococcus faecalis (strain V583)); assay: as above

B1: 3Flag tagged FHL2 (protein, UniProt Q14192 1-279)
chain: MTERFDCHHCNESLFGKKYILREESPYCVVCFETLFANTCEECGKPIGCDCKDLSYKDRHWHEACFHCSQCRNSLVDKPFAAKEDQLLCTDCYSNEYSSKCQECKKTIMPGTRKMEYKGSSWHETCFICHRCQQPIGTKSFIPKDNQNFCVPCYEKQHAMQCVQCKKPITTGGVTYREQPWHKECFVCTACRKQLSGQRFTARDDFAYCLNCFCDLYAKKCAGCTNPISGLGGTKYISFEERQWHNDCFNCKKCSLSLVGRGFLTERDDILCPDCGKDI
Question: What does the source list for B1?
Answer: binding [1]: binds; binding [2]: binds weakly

Results are given in words; binding and its absence hold for the method and conditions named. In cells and extracts the contact can be indirect. Binding can be weak; no strength is given. Sequences can lack the tags named with a protein.
